Consider 33 compounds from the supplement of paper PMC5407854, “Inhibitor of ppGalNAc-T3-mediated O-glycosylation blocks cancer cell invasiveness and lowers FGF23 levels” (eLife, 2017).

The structures appear in SMILES notation. Whole data set: some 1,700 compounds, median “T3 sensor activation Q score (MG/GFP ratio z-score vs DMSO controls)” near 0.25, cut for the highest 2% near 1.9. Some of the results follow.

The test system of this assay is ppGalNAc-T3 sensor. The experiment in a line: T3 sensor activation Q score (MG/GFP ratio z-score vs DMSO controls) (SD units); higher = more sensor activation (inhibition of ppGalNAc-T3 glycosylation). The settings on record: HEK293 sensor cells; 10 µM; 6 h. Here is the method: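 Cells were treated with compound at 10 uM for 6 h, then MG/GFP ratio was read by flow cytometry (10,000 cells per well, duplicate wells). Q = (R - R_neg)/SD_neg relative to DMSO vehicle controls; the signal rises when the glycosyltransferase is inhibited.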
For the compound `O=[N+]([O-])c1ccc(/C=[N+](\[O-])CCO)o1`, the “T3 sensor activation Q score” value was -0.75.

As to `CCCSc1ncnc2[nH]ncc12`, the “T3 sensor activation Q score” value stood at 1.45.

As to `NC(=S)NC(=O)c1ccccc1`, the “T3 sensor activation Q score” value was 1.4.

Turning to `Nc1o[nH]c(=O)c1C1CCCCC1`, the “T3 sensor activation Q score” value was determined as 0.7.

As to `COc1cccc2c1C(=O)c1c(O)c3c(c(O)c1C2=O)C[C@@](O)(C(=O)CO)C[C@@H]3O[C@H]1C[C@H](N)[C@@H](O)[C@H](C)O1`, the “T3 sensor activation Q score” value was found to be 1.3.

With `COc1cc(CC(=O)C(=O)O)oc(=O)c1`, the “T3 sensor activation Q score” value amounted to 0.6.

In the case of `COc1cc(/C=N/Nc2nc3c([nH]2)c(=O)n(C)c(=O)n3C)ccc1O`, the “T3 sensor activation Q score” value came to 1.75.

In the case of `CCCn1cnc2c(=S)nc(N)[nH]c21`, the “T3 sensor activation Q score” value amounted to 0.75.

As to `CCOC(=O)/C=C/c1nc(C(=O)OCC)c(C)c(=O)[nH]1`, the “T3 sensor activation Q score” value was 1.9.

Consider `COC(=O)C[C@](O)(CCCC(C)(C)O)C(=O)O[C@@H]1C(OC)=C[C@]23CCCN2CCc2cc4c(cc2[C@H]13)OCO4`, for which the “T3 sensor activation Q score” value is -0.45.

As for `C=CCC(CC)C(=O)NC(=O)N1CCCc2ccccc21` (stereo not drawn), the “T3 sensor activation Q score” value came out at 0.6.

Consider `CCOP(=O)(OCC)/C(C#N)=C/c1ccc(-c2ccc(F)cc2F)o1`, for which the “T3 sensor activation Q score” value is -0.15.

On to `O=[N+]([O-])c1ccc2[nH]c3nc4ccccc4nc3c2c1`, for which the “T3 sensor activation Q score” value was 0.55.

`CC(C)n1cc(C#N)c(N)n1`: the “T3 sensor activation Q score” value was 1.3.

Regarding `C=CCOCCN(CC)CC`, the “T3 sensor activation Q score” value is -0.05.

For `Cc1ccc(Cl)cc1NC(=O)c1cc2ccccc2cc1O`, the “T3 sensor activation Q score” value is -1.65.

Turning to `O=C(O)Cc1ccc(N=Nc2c(O)c(C(=O)O)cc3ccccc23)cc1`, the “T3 sensor activation Q score” value amounted to 0.95.

`CC(C)c1ncc(CO)n1Cc1c(Cl)cccc1Cl`: the “T3 sensor activation Q score” value was determined as 1.85.

`Cc1cc(O)cc2c1[C@H]1CC[C@]3(C)C(=O)CC[C@H]3[C@@H]1C=C2`: the “T3 sensor activation Q score” value came to 0.75.

With `NS(=O)(=O)c1ccc(NC(=S)NC(=O)c2ccco2)cc1`, the “T3 sensor activation Q score” value was determined as 1.

As to `O=C(O)CSc1ccc(NC(=O)Nc2ccccc2F)cc1`, the “T3 sensor activation Q score” value was -0.45.

For the compound `COCC(=O)Oc1cc(-c2ccc(C)cc2C)c(OC(=O)COC)c(-c2ccc(C)cc2C)c1`, the “T3 sensor activation Q score” value was determined as 0.5.

For `O=C(C=Cc1ccc(O)c(O)c1)c1ccccc1O`, the “T3 sensor activation Q score” value is -1.55.

On to `CC(=O)Oc1ccc2cc(-c3ccccc3)c(=O)oc2c1`, for which the “T3 sensor activation Q score” value was 0.15.

On to `CS(=O)(=O)OCCCCOS(C)(=O)=O`, for which the “T3 sensor activation Q score” value is 0.5.

Turning to `CC(C)CNC(=O)/C=C\C(=O)O`, the “T3 sensor activation Q score” value is -0.1.

Take `Cn1ncc2c(NCc3ccccc3)ncnc21`: the “T3 sensor activation Q score” value was -1.6.

Regarding `COc1ccc(NC(=O)N2CCN(C(=O)Nc3ccc(OC)cc3)CC2)cc1`, the “T3 sensor activation Q score” value is 0.15.

As to `O=C(Nc1cccc(Cl)c1)Nc1nccs1`, the “T3 sensor activation Q score” value stood at 0.3.

Turning to `O=C1CC(c2ccc(O)cc2)Oc2cc(O)cc(O)c21` (stereo not drawn), the “T3 sensor activation Q score” value amounted to 0.3.

On to `CNC(=O)c1cc(Oc2ccc(NC(=O)Nc3ccc(Cl)c(C(F)(F)F)c3)cc2)ccn1`, for which the “T3 sensor activation Q score” value is -4.4.

As to `Cc1c([N+](=O)[O-])oc2c1C(=O)NCCC2`, the “T3 sensor activation Q score” value was 0.75.

With `COc1ccccc1NC(=O)Nc1cc(C(C)C)ccc1C`, the “T3 sensor activation Q score” value was 0.15.
